Among the data in paper doi:10.1101/2024.11.26.625523 are binding values, retold here.

By UniProt entry, the sequences of proteins in these tests, tags left out.
UniProt O43707: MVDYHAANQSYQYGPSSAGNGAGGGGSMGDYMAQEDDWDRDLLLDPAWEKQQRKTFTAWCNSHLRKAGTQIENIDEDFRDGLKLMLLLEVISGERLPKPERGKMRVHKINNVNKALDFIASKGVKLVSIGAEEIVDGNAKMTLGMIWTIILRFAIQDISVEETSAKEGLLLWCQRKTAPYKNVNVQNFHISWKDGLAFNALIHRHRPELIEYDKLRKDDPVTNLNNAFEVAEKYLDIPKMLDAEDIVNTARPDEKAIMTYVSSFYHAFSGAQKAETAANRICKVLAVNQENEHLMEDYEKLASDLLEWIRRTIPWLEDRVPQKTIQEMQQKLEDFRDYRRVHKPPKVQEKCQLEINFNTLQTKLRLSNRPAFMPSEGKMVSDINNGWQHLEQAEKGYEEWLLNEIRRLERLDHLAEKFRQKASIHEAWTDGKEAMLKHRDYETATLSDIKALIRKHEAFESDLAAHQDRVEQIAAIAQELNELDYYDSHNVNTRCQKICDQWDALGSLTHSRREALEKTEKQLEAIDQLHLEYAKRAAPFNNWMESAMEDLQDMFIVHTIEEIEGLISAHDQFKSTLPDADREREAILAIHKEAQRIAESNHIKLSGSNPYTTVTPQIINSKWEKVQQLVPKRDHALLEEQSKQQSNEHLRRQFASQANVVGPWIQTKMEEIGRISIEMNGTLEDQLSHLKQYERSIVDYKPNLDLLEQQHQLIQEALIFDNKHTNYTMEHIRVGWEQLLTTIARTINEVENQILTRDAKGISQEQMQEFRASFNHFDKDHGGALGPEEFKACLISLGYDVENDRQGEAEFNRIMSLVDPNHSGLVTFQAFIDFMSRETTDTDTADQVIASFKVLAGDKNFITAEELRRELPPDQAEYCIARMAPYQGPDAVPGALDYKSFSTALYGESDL
UniProt P35609: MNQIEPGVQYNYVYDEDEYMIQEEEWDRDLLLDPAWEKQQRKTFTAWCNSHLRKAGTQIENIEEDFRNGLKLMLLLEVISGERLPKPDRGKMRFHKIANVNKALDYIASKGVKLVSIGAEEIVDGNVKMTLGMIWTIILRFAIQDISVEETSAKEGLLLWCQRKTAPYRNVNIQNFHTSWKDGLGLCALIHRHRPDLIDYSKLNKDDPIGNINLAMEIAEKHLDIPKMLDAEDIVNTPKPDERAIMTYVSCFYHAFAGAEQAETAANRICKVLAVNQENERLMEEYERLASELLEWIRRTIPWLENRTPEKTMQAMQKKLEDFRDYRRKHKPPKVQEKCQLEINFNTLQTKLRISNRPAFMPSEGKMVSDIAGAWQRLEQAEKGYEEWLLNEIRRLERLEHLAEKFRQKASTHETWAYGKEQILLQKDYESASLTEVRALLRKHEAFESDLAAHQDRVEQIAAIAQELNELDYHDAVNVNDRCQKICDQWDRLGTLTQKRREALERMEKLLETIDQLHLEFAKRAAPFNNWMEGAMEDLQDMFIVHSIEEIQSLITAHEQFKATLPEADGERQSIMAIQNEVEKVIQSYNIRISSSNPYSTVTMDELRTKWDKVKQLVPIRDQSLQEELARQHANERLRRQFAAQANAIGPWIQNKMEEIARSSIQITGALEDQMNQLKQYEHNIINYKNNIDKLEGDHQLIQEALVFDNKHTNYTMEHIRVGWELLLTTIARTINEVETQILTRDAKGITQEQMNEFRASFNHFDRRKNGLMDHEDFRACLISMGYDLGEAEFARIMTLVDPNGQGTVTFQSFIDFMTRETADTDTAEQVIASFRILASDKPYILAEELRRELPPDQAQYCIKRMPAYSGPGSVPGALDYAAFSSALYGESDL

Results are given in words; binding and its absence hold for the method and conditions named. Binding seen in cells or lysates may run through a third protein. Some entries that bind do so weakly or less than the wild type.

This assay concerns the target ACTN4-mEGFP (alpha-actinin 4-mEGFP fusion) (human) (UniProt O43707). As to the kind of experiment: co-IP.

“endogenous ACTN2 (α-actinin 2) (from UniProt P35609 1-894)”: the binding entry is given as “binds”.
